From the supplement of paper PMC6414424
Where a name gives a salt, the structure may show the parent alone. ± gives the standard deviation of the averaged measurements. The list shows a part of the results.

system: APPdp1-6 iPSC-derived neurons; assay: pThr231Tau/total Tau ratio Z-score vs DMSO vehicle wells; higher = more pThr231Tau relative to total Tau; conditions: 5 µM; treatment time 5 days

Structure (SMILES)	pThr231Tau/total Tau ratio Z-score
Cn1cnc([N+](=O)[O-])c1Sc1ncnc2nc[nH]c12 [Prestw-94]	1.85 ± 1.2
CC(C)(CO)C(O)C(=O)NCCC(=O)O (centres undefined) [PANTOTHENIC ACID(d) Na salt, vitamin B5]	0.0697 ± 0.9
COc1cccc2c1C(=O)c1c(O)c3c(c(O)c1C2=O)C[C@@](O)(C(C)=O)C[C@@H]3O[C@H]1C[C@H](N)[C@H](O)[C@H](C)O1 [Prestw-487]	-3.25 ± 1.9
C=CC1=C(C(=O)O)N2C(=O)[C@@H](NC(=O)/C(=N\O)c3csc(N)n3)[C@H]2SC1 [Prestw-1263]	-0.662 ± 1.2
OCc1ccccc1O[C@@H]1O[C@H](CO)[C@@H](O)[C@H](O)[C@H]1O [Salicin]	0.99 ± 2
CC(=O)NS(=O)(=O)c1ccc(N)cc1 [SULFACETAMIDE    Therap cat:  Antibacterial]	2.07 ± 2.3
CC(=O)NS(=O)(=O)c1ccc(N)cc1 [Prestw-14]	0.312 ± 0.062
Cc1cn([C@H]2C=C[C@@H](CO)O2)c(=O)[nH]c1=O [Prestw-1279]	0.733 ± 0.33
CCN(CC)CC(=O)Nc1c(C)cccc1C [Prestw-50]	-0.00552 ± 0.87
c1ccc2c(CC3=NCCN3)cccc2c1 [Prestw-46]	0.196 ± 1.4
CC(=O)OCC(=O)[C@@]12OC(C)(C)O[C@@H]1C[C@H]1[C@@H]3C[C@H](F)C4=CC(=O)C=C[C@]4(C)[C@@]3(F)[C@@H](O)C[C@@]12C [Prestw-774]	0.499 ± 0.61
CCC(C)CCCCC(=O)NCC[C@@H]1NC(=O)[C@H](CC(C)C)NC(=O)[C@H](CCN)NC(=O)[C@H](CC(C)C)NC(=O)[C@H](CCN)NC(=O)[C@H](CCN)NC(=O)[C@H](CCN)NC(=O)[C@H]([C@@H](C)O)NC1=O (some centres undefined)	0.919 ± 1.1
NC(N)=NC(=O)c1nc(Cl)c(N)nc1N [Prestw-7]	0.663 ± 0.52
O=c1oc2c(O)c(O)cc3c(=O)oc4c(O)c(O)cc1c4c23 [Ellagic acid]	0.774 ± 0.63
CO[C@@H]1[C@@H](O[C@@H]2O[C@H](C)[C@@H](O[C@H]3C[C@@](C)(O)[C@@H](OC(=O)CC(C)C)[C@H](C)O3)[C@H](N(C)C)[C@H]2O)[C@@H](CC=O)C[C@@H](C)[C@@H](O)/C=C/C=C/C[C@@H](C)OC(=O)C[C@H]1OC(C)=O [Prestw-154]	-0.769 ± 0.017
CO[C@@H]1[C@@H](O[C@@H]2O[C@H](C)[C@@H](O[C@H]3C[C@@](C)(O)[C@@H](OC(=O)CC(C)C)[C@H](C)O3)[C@H](N(C)C)[C@H]2O)[C@@H](CC=O)C[C@@H](C)[C@@H](O)/C=C/C=C/C[C@@H](C)OC(=O)C[C@H]1OC(C)=O [JOSAMYCIN, antibacterial]	0.66 ± 0.046
c1coc(CNc2ncnc3nc[nH]c23)c1 [Prestw-659]	0.69 ± 0.79
CC(=O)CC(c1ccccc1)c1c(O)c2ccccc2oc1=O (centres undefined) [Prestw-1363]	-0.848 ± 1.3
O=C1NS(=O)(=O)c2ccccc21 [SACCHARIN    Therap cat: sweetener]	1.92
NS(=O)(=O)c1cc2c(cc1Cl)NC(C1CC3C=CC1C3)NS2(=O)=O (centres undefined) [Blocks the rapid desensitization of AMPA glutamate receptors]	0.0669 ± 0.37
CN1C(=O)CC[C@H]1c1cccnc1 [Major metabolite of nicotine in humans]	0.199 ± 0.098
CC[C@@H]1C(=O)OC[C@@H]1Cc1cncn1C [Prestw-449]	0.935 ± 1.3

Structure (SMILES)	pThr231Tau/total Tau ratio Z-score
CCC1(C)OC(=O)N(C)C1=O (centres undefined) [PARAMETHADIONE, anticonvulsant]	-0.577 ± 0.95
O=C(OOC(=O)c1ccccc1)c1ccccc1 [BENZOYL PEROXIDE, keratolytic]	0.779 ± 0.87
N[C@@H](Cc1c[nH]c2ccccc12)C(=O)O [TRYPTOPHAN    component of casein; antidepressant; nutrient]	0.841 ± 1.2
CC(O)Cn1cnc2c1c(=O)n(C)c(=O)n2C (centres undefined)	-0.138 ± 0.099
CC(C)NC[C@@H](O)COc1ccc(CC(N)=O)cc1 [Prestw-536]	0.437 ± 0.21
CC(C)NC[C@@H](O)COc1ccc(CC(N)=O)cc1 [Prestw-953]	-0.336 ± 1.2
NS(=O)(=O)c1cc2c(cc1C(F)(F)F)NCNS2(=O)=O [Prestw-13]	1.52 ± 0.016
NC(=O)CCCCC1CCSS1 (centres undefined) [Lipoamide]	0.337 ± 1.4
CS(=O)(=O)OCCCCOS(C)(=O)=O [Prestw-1179]	0.22 ± 0.081
Cc1c(NC(=O)c2cccnc2)c(=O)n(-c2ccccc2)n1C [Prestw-225]	0.35 ± 0.78
Nc1nc2c(ncn2COCCO)c(=O)[nH]1 [Prestw-86]	-0.291 ± 0.61
CC(C)(C)NC(=O)[C@@H]1C[C@@H]2CCCC[C@@H]2CN1C[C@@H](O)[C@H](Cc1ccccc1)NC(=O)[C@H](CC(N)=O)NC(=O)c1ccc2ccccc2n1 [Prestw-1114]	0.918 ± 2.1
CCCCCN(CCCCC)C(=O)C(CCC(=O)O)NC(=O)c1ccc(Cl)c(Cl)c1 (centres undefined) [Prestw-915]	-0.337 ± 0.54
COc1c(N2C[C@@H]3CCCN[C@@H]3C2)c(F)cc2c(=O)c(C(=O)O)cn(C3CC3)c12 [Prestw-1446]	-0.148 ± 0.19
COc1c(N2C[C@@H]3CCCN[C@@H]3C2)c(F)cc2c(=O)c(C(=O)O)cn(C3CC3)c12 [MOXIFLOXACIN HYDROCHLORIDE, antibacterial]	0.41 ± 1.1
COc1ccc(C(=O)c2ccccc2)c(O)c1 [Prestw-887]	0.793 ± 1.9
COc1ncnc(NS(=O)(=O)c2ccc(N)cc2)c1OC [Prestw-1094]	-0.43 ± 0.55
CC(=O)OCC(=O)[C@@]1(O)[C@H](C)C[C@H]2[C@@H]3CCC4=CC(=O)C=C[C@]4(C)[C@@]3(F)[C@@H](O)C[C@@]21C [Prestw-130]	-0.302 ± 0.093
COc1ccc(C(=O)CC(=O)c2ccc(C(C)(C)C)cc2)cc1 [AVOBENZONE    Therap cat: sunscreen]	1.07 ± 1.1
CCOC(=O)C1=C(C)NC(C)=C(C(=O)OCC)C1c1ccccc1/C=C/C(=O)OC(C)(C)C [Prestw-1297]	0.241 ± 1.2
CCOc1cc(CC(=O)N[C@@H](CC(C)C)c2ccccc2N2CCCCC2)ccc1C(=O)O [Prestw-1046]	0.0801 ± 0.01
CCCCN(CCCC)CCC(O)c1cc2c(Cl)cc(Cl)cc2c2cc(C(F)(F)F)ccc12 (centres undefined) [Prestw-1031]	-2.73

Part of the list above, reformatted.
Structure (SMILES) | pThr231Tau/total Tau ratio Z-score
CCC1(C)OC(=O)N(C)C1=O (centres undefined) [PARAMETHADIONE, anticonvulsant] | -0.577 ± 0.95
O=C(OOC(=O)c1ccccc1)c1ccccc1 [BENZOYL PEROXIDE, keratolytic] | 0.779 ± 0.87
CC(O)Cn1cnc2c1c(=O)n(C)c(=O)n2C (centres undefined) | -0.138 ± 0.099
NC(=O)CCCCC1CCSS1 (centres undefined) [Lipoamide] | 0.337 ± 1.4
CS(=O)(=O)OCCCCOS(C)(=O)=O [Prestw-1179] | 0.22 ± 0.081
Cc1c(NC(=O)c2cccnc2)c(=O)n(-c2ccccc2)n1C [Prestw-225] | 0.35 ± 0.78
Nc1nc2c(ncn2COCCO)c(=O)[nH]1 [Prestw-86] | -0.291 ± 0.61
CC(C)(C)NC(=O)[C@@H]1C[C@@H]2CCCC[C@@H]2CN1C[C@@H](O)[C@H](Cc1ccccc1)NC(=O)[C@H](CC(N)=O)NC(=O)c1ccc2ccccc2n1 [Prestw-1114] | 0.918 ± 2.1
COc1c(N2C[C@@H]3CCCN[C@@H]3C2)c(F)cc2c(=O)c(C(=O)O)cn(C3CC3)c12 [MOXIFLOXACIN HYDROCHLORIDE, antibacterial] | 0.41 ± 1.1
COc1ncnc(NS(=O)(=O)c2ccc(N)cc2)c1OC [Prestw-1094] | -0.43 ± 0.55
